Measurements published in article PMC7819943, “Rice protein-binding microarrays: a tool to detect cis-acting elements near promoter regions in rice”.
The list shows a part of the results.

Protein sequences, listed by entry. Tags and fused reporters are not part of them.
UniProt Q0JBA9, entry or part of it: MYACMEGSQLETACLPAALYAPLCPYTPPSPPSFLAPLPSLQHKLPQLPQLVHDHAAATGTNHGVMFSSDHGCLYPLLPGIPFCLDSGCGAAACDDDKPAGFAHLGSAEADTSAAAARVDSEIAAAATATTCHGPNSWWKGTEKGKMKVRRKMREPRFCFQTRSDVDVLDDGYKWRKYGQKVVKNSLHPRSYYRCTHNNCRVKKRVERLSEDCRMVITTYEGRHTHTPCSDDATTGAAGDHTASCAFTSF

Molecular target: OsWRKY34 (Oryza sativa, UniProt Q0JBA9 1-250)
Experiment: protein-binding microarray (RPBM); PBS, 2% BSA, 51.3 ng/ul salmon testes DNA, 50 uM zinc acetate, 200 nM TF, 25 C, 1 h; high values mean tight binding
Conditions: protein: recombinant; tags: N-terminal polyhistidine and DsRed monomer fusion (pET32a); label: CyDye5-dUTP incorporated in the synthesized complementary strand; 3' TTTTT single-stranded linker to array surface; dsDNA, one strand shown
In short: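 The binding signal is fluorescence intensity per array feature (arbitrary units). Readings came from an Axon 4000B scanner after a washed, 2% BSA-blocked, double-stranded custom Agilent array had been incubated for 1 h at 25 °C with 200 nM protein and 50 µM zinc acetate. The protein was a Ni–NTA-purified transcription factor fused N-terminally to polyhistidine and DsRed, expressed in E. coli BL21-CodonPlus.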

Sequence	binding signal
TCCGCTCCATTCCTGATTCCTCCTCCCAACTCTTGCTTCCCGGAGTCACCTAGTGCAG	10800 fluorescence intensity (a.u.)
ATCGTTATCATGATAACATTAGTTTTTTCGTTGCATTTTTCGGAGTCACCTAGTGCAG	9160 fluorescence intensity (a.u.)
GGCAATGCTTCACCGTCGCTTGCACCCCTTTCTCATGTGTCGGAGTCACCTAGTGCAG	9790 fluorescence intensity (a.u.)
AACTGTACCCACTCCATTTCCGTTGAAACTAATTATTTTCCGGAGTCACCTAGTGCAG	10800 fluorescence intensity (a.u.)
AGAGATTTAGGGGAGGATTGGATTAGGTTACACTATATAGCGGAGTCACCTAGTGCAG	8120 fluorescence intensity (a.u.)
TCGTGAACCGGCGCTACTACTTCTCCTGTGCTTTGACCACCGGAGTCACCTAGTGCAG	11200 fluorescence intensity (a.u.)
CATGTACCATATAGCATGCACTGTATATCCTTCTACCTCTCGGAGTCACCTAGTGCAG	8500 fluorescence intensity (a.u.)
TGTGAGCACTCAGCACTGTATCTGTATGTTGTTTTGTCGTCGGAGTCACCTAGTGCAG	11200 fluorescence intensity (a.u.)
CATTCGTTTCTCTCTTTCTCTTCCCTGCTACTCGCTCCTCCGGAGTCACCTAGTGCAG	8100 fluorescence intensity (a.u.)
CGCACACGTGTCCCCTATCACGCGTACTCTAGCTTCCAGTCGGAGTCACCTAGTGCAG	9070 fluorescence intensity (a.u.)
CGCTGTATTTTGTTGGGATCACCTGTACATTTCTTCACAACGGAGTCACCTAGTGCAG	10900 fluorescence intensity (a.u.)
ACATTAAGCATAAAGCATTATGTTTCTTTTTTTTTTTCATCGGAGTCACCTAGTGCAG	8110 fluorescence intensity (a.u.)
AACTTCAGTCCTTTTCCATCACATCAACCTGTCATATACACGGAGTCACCTAGTGCAG	8220 fluorescence intensity (a.u.)
GCAGTCCCAATTTTGCAATTTTCTCCTCAACGGTTGCCTACGGAGTCACCTAGTGCAG	8190 fluorescence intensity (a.u.)
GATCGAGTACCGGAGGCTGACCCCGGAAGGGGCGGGGAGGCGGAGTCACCTAGTGCAG	11400 fluorescence intensity (a.u.)
ACCTTACGCGACCCCGAACCTAAACCCTCTGCGAAACGCTCGGAGTCACCTAGTGCAG	9140 fluorescence intensity (a.u.)
ACCAGCACCCCACCTCGGCTTTACTTCTCTGCTCTGCTCACGGAGTCACCTAGTGCAG	9230 fluorescence intensity (a.u.)
TCCATATACAGTTTCCGGCCAAAAAATTACTAACACCGTTCGGAGTCACCTAGTGCAG	8700 fluorescence intensity (a.u.)
TTCTCTTTTTCTTTTTATTTTTTCGTTCTCGTCGCCGCCGCGGAGTCACCTAGTGCAG	8330 fluorescence intensity (a.u.)
CGGTGGCGGGGTTCTTCTTTGGCGACTTGGCCTCCTTGTTCGGAGTCACCTAGTGCAG	10600 fluorescence intensity (a.u.)
CTACCATGGTCCCAAGTCTCATTTGCAACTTTTTTACTCCCGGAGTCACCTAGTGCAG	8260 fluorescence intensity (a.u.)

Sequence	binding signal
TCCTCTCTTTTGCATGTCATATTAGTAGTATGAAGTTGATCGGAGTCACCTAGTGCAG	8200 fluorescence intensity (a.u.)
ACGTACAATTATAATTACTGTGTATATATGCATGCGCCAACGGAGTCACCTAGTGCAG	8380 fluorescence intensity (a.u.)
TCTAGACATTCTCCAATTGTCCTGTTCATCTTGTCTAGACCGGAGTCACCTAGTGCAG	8270 fluorescence intensity (a.u.)
AAGGGATTTTGAGTTTTTATTTGCATTGTTTGACCACTCACGGAGTCACCTAGTGCAG	10500 fluorescence intensity (a.u.)
CCAAGTAAAATTTTGTGCCTCTTATAATTTTTTGATGTTACGGAGTCACCTAGTGCAG	8320 fluorescence intensity (a.u.)
TTTTGCAGTTATTTCATGCATTTACTTTTAAAATGCAATTCGGAGTCACCTAGTGCAG	8800 fluorescence intensity (a.u.)
ATCTCAGTTCTCATACAAATATCTTCGCTTGGTCACGATCCGGAGTCACCTAGTGCAG	8960 fluorescence intensity (a.u.)
CCACAGCACCACTACTACGACCGACACGAGCCACAGAGTCCGGAGTCACCTAGTGCAG	8470 fluorescence intensity (a.u.)
TCAATACCTGGCTCACTTGCAGTGTACTCTCCAACAACTTCGGAGTCACCTAGTGCAG	8790 fluorescence intensity (a.u.)
GGTTCATGCTTCTCCAATTTTTTTACGTATACAACTACTGCGGAGTCACCTAGTGCAG	8700 fluorescence intensity (a.u.)
AATAGATTGAAGTATGATGAGTTTTTTCTTATTTACCGTTCGGAGTCACCTAGTGCAG	8700 fluorescence intensity (a.u.)
AAGTTTATGTGTGTAGGAAAGTTTTGATGTGATGGAAAATCGGAGTCACCTAGTGCAG	8350 fluorescence intensity (a.u.)
CGATCTCCAGGTGCACCAAAACACTCGCTCTCGCCTTGACCGGAGTCACCTAGTGCAG	9420 fluorescence intensity (a.u.)
CATATGCTATTTTCTGTTTCAAACTTTTTTTCACAAAGCGCGGAGTCACCTAGTGCAG	10200 fluorescence intensity (a.u.)
GTGCTTGCCCTTTGTTGCGTTGGTGTTGTTTATGTTCTCTCGGAGTCACCTAGTGCAG	12300 fluorescence intensity (a.u.)
GTGATAGAAAAGTTGTGTGTGTATGAAATGTTTGATGCGACGGAGTCACCTAGTGCAG	8750 fluorescence intensity (a.u.)
GGCCCTTATAAATAACTGACCATGTTGCCTGAATTTTACCCGGAGTCACCTAGTGCAG	11400 fluorescence intensity (a.u.)
CACCCACAAAGCCACCACTGACCACTCGCTTTGCCAAGCACGGAGTCACCTAGTGCAG	10200 fluorescence intensity (a.u.)
CCCTTGTAATTATTTGATATTAGATCATTCCCTAATATTCCGGAGTCACCTAGTGCAG	9690 fluorescence intensity (a.u.)
AACCCTTTTCATCCTGTCACGCCACCGAGGCACCCGCCTCCGGAGTCACCTAGTGCAG	8960 fluorescence intensity (a.u.)
TTATGTTTGAGTACTATATGTTGCGTTTTAGTTTTAGTTCCGGAGTCACCTAGTGCAG	10100 fluorescence intensity (a.u.)

Looked up above:
For binding signal, TCAATACCTGGCTCACTTGCAGTGTACTCTCCAACAACTTCGGAGTCACCTAGTGCAG shows 8790 fluorescence intensity (a.u.)
For binding signal, CTACCATGGTCCCAAGTCTCATTTGCAACTTTTTTACTCCCGGAGTCACCTAGTGCAG shows 8260 fluorescence intensity (a.u.)
